In PubChem BioAssay AID1508600 (Functional Genomics Laboratory (NCATS/FGL), 2020) one finds z-score data, which are given here for 68 sequences.

Out of some 53,000 sequences screened, about 3,700 (7%) were called active.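 The calls were made as follows: active = gene knockdowns whose robust z-score for IL-1 alpha signal is at least 2 or at most -2, so actives lie on both sides; inactive = the rest.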 Some of the results follow.

The nature of this test: Components of the Cytosolic LPS Sensing Pathway: Gene Identification via Genome-wide siRNA Screen.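 Also: robust z of the log signal after scaling to non-targeting control siRNA wells of the plate.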 As to conditions: RAW264.7 macrophages, IL-1a HTRF, actives lie on both sides, screened at 100 nM (by protocol), cells primed 5 h with Pam3CSK4 first. An outline of the steps:
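Knockdown: 100 nM siRNA, 48h, RAW264.7. Stimulation: Pam3CSK4 5 h, then LipidA via TransIT-TKO 24 h. Output: supernatant IL-1a HTRF, negative-control-normalized, log robust z-score; viability by CellTiter-Glo.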
As to GGAUUCUUCGCUCCAAUGATT against Pacs1, the z-score is inactive: 0.73.

As to GCAUGUAUAUAGGUAAAACTT against Nedd1, the z-score was inactive: 1.27.

On to GCCUGUUCAUCGGUUUUAUTT against Vmn1r56, for which the z-score was inactive: -0.175.

Take ACUGUUUAGACCCGGUUUCTT against Cd59b: the z-score was inactive: 0.803.

Turning to CCACAUGCCUGAGAGAUUCTT against Spp2, the z-score was inactive: 1.28.

GCGAUUCCUAGAGCUGAGCTT against Git1: the z-score is active: -2.5.

As to CGGUAUUGGUCCAGAAGUGTT against Dand5, the z-score was inactive: 0.993.

Consider GCGGUAUGUACCUGUGAAATT against Exosc3, for which the z-score is inactive: -1.13.

Take GGCCGGGCAUUCUAAAGAATT against Zfp516: the z-score was inactive: 0.363.

On to GGAGCUAACAAAAUAGGCUTT against Epb41l4b, for which the z-score is inactive: 0.0549.

On to GCCUGUAAAAACCUUUUCCTT against Utp15, for which the z-score is inactive: -0.154.

Turning to GGAGGAUAUUGGAACUGCCTT against Lrrc26, the z-score was inactive: 0.312.

In the case of GAUUUCAUUAAACAUGUCCTT against Cox8b, the z-score was inactive: -0.41.

Take CCUACAAUUCUAGGUUACGTT against Snx16: the z-score is inactive: -1.34.

As to GGUGGUCAACCCUCUGUUCTT against Rpl7a, the z-score was inactive: 1.6.

As for GGAAAAUGCAUUUCAGACATT against Ugcg, the z-score was inactive: -0.201.

As for GGCGCAACUUGAAACUUACTT against Galnt4, the z-score is inactive: 0.696.

Take GGAGAGAAACUUCAGAGUGTT against Spon2: the z-score was inactive: -0.453.

Turning to GGUUUCAUAAAUUCAGUGGTT against Brox, the z-score was inactive: 1.05.

On to GCUGAUACUUGUGUCUUCUTT against Selenop, for which the z-score is inactive: -0.927.

On to “GAUCCCUGGAUUGUGGAGUTT against 2310057N15Rik”, for which the z-score was inactive: 0.26.

In the case of GGAUGUCGGUGUGAUUUGCTT against Cd163, the z-score is inactive: -0.314.

Turning to GGAACUGGAGCAACUCAUUTT against Sgsm1, the z-score was inactive: -1.11.

For the sequence GGUAGAUGGGUUUCAUAAUTT against Gpc2, the z-score is inactive: 0.612.

In the case of GGCUAAAUCUCACACUCCATT against Mzb1, the z-score was active: -2.18.

Regarding CCAGGAUUACUUACACUCGTT against Flot1, the z-score was inactive: -0.583.

GCAAGAGUCCACCUUUAGCTT against Gstk1: the z-score was inactive: 0.0418.

GGGACACUUGGACUUUAUATT against Psapl1: the z-score was inactive: -0.733.

Consider GGAUGUGCUUAUGAACAAUTT against Rab38, for which the z-score was inactive: 1.38.

Take GGCAGCUGGCUAUUUUCACTT against Prmt9: the z-score was inactive: 0.114.

Take GGAAAAUUCUGAGUUAAAGTT against Tapt1: the z-score is inactive: -0.415.

As for GGAUUCUCAAUAAAGACUUTT against Naxe, the z-score is inactive: 0.24.

As for UUUUCCAGUUAGUGACAACTT against Oxct2b, the z-score was inactive: 0.681.

Take CCAUUCUGAAUCUCUAAUCTT against Pigw: the z-score was inactive: 0.134.

As to GGCCAAAUAGCAUUUGCCATT against Olfr657, the z-score was inactive: -0.0182.

In the case of GCUGACAGUAGUUUGAAGATT against Defb1, the z-score was inactive: 0.161.

Regarding GCCCUAUCUGCUGAUACCUTT against Mavs, the z-score was inactive: 0.473.

On to GGAAUUAUAGGACUUGUUCTT against Serinc1, for which the z-score is inactive: 0.256.

In the case of GCAUAGAAUACAAAGAUGATT against Cnst, the z-score is inactive: -0.116.

As to GGACAGAGAAAGGCACAGATT against Clcn3, the z-score was inactive: -0.525.

For the sequence GGAUCUAGUCCCUGAUUUGTT against Sdhb, the z-score was inactive: -0.234.

On to GGAAAUCUAAAGGAGACAUTT against Cdo1, for which the z-score is inactive: -0.945.

For the sequence CGCCACGAACUCAAUUCUGTT against Irx4, the z-score is inactive: -0.124.

Take GGAUGGAACUAUCUGAAUUTT against Slc7a5: the z-score was inactive: -0.396.

Take CCCAUUGUCAUGAUAAGCUTT against Fbln1: the z-score was inactive: 0.376.

Regarding GGCGGUUAAACCACAGCGUTT against Snapin, the z-score was inactive: -0.749.

For GGCAUUAUACCCAUCAGGCTT against Fam89b, the z-score is inactive: 0.238.

As for GGCAAGCUACAAGUUAGUCTT against Srrm3, the z-score was inactive: 0.469.

With GGGUGAUAAAAUUCAGAUUTT against Gpr88, the z-score is active: 2.07.

As for GGAGAAGUAUGAAAUAGCATT against Rad51, the z-score was inactive: -0.37.

On to CCCUGAGGCAAAGAAAUGUTT against Msh3, for which the z-score was inactive: 0.0401.

Take “GGCCCAAUUGUCGAUAUCCTT against 2300002M23Rik”: the z-score was inactive: 1.82.

GCGAAACUACCGACAGUGUTT against Irf2: the z-score is inactive: -1.16.

In the case of GGAAAAUCUUUACAGAGCGTT against Zfp617, the z-score was inactive: 0.358.

For GGUGCCAUACCAUUUCCUATT against Olfr351, the z-score is inactive: -0.0916.

For the sequence GGAAAUUCUUUGGUGAAAUTT against Galnt17, the z-score is inactive: -0.273.

With GCUGAUCAAAUUGGCCUGUTT against Olfr984, the z-score is inactive: -0.703.

Take GGUUUUUGUUGUAAUAGGCTT against Olfr915: the z-score was inactive: -0.758.

For GGACCACAACACAAAUCUGTT against Fasl, the z-score was inactive: 1.49.

Consider GCCAACAUGAGCUCAACAATT against Foxs1, for which the z-score was inactive: -0.611.

Consider CGACCUCCAGUAAUAACCUTT against Olfr310, for which the z-score is inactive: -0.746.

For GGGUGUCUCCAUUUUUCCUTT against Wdcp, the z-score is inactive: 0.534.

Turning to GGAGUUUCAGCAGUCGUGATT against Prkrip1, the z-score was inactive: -0.94.

In the case of UCUUCUAUGGUUCAGGUGCTT against Olfr1537, the z-score is inactive: 0.617.

GGCUGAUUAGAAUACCUCCTT against Adra2b: the z-score was inactive: 0.352.

For GGCUGUCAUGAUCAGUCAUTT against Vmn1r14, the z-score was inactive: -1.35.

Consider GGUCCUUGAGCUAAGGACATT against Olfm2, for which the z-score was inactive: -0.995.

Regarding GGAUUUAGGCUAGACCGGGTT against Pik3r6, the z-score is inactive: -0.505.
